Reference: patent publication US20210309735A1 (published 2021)
No constants are given. Whether binding was seen depends on the method and setting. Some entries that bind do so weakly or less than the wild type.

Columns and labels:
human IL-17A [1] = biological target: T1, human IL-17A (human, UniProt Q16552 20-155, limits assumed); test: BLI (Octet)
T1 construct: Bought from R&D Systems; also called IL-17 antigen (human IL17A)
T1 sequence (looked up): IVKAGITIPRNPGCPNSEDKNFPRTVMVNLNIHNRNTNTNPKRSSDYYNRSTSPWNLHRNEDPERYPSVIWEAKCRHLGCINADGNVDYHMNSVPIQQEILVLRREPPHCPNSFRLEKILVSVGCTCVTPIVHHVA

human IL-17A [2] = biological target: T1, human IL-17A; test: ELISA, human IL-17A coated
[3] = biological target: cynomolgus monkey IL17A (cynomolgus monkey); test: ELISA, monkey IL-17A coated
human IL-17A (human) [4] = biological target: T2, human IL-17A (human) (UniProt Q16552); test: BLI (Octet)
T2 sequence (looked up): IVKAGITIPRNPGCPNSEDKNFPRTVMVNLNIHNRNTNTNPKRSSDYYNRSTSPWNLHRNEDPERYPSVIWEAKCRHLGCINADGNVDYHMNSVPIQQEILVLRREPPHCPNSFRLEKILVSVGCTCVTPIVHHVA

human IL-17A (human) [5] = biological target: T2, human IL-17A (human); test: ELISA, human IL-17A coated

Measured: binding

B1: PP10761 (antibody, human IgG4 S228P, kappa, V domains shown)
VH: EVQLVESGGGLVQPGGSLRLSCAASGFTFSTYGMSWVRQAPGKGLELVSIINHNGGSTFYPDSVKGRFTISRDNSKNTLYLQMNSLRAEDTAVYYCARDPRHDGYFFDYWGQGTLVTVSS
VL: DIQMTQSPSSLSASVGDRVTITCQASEDIYDRLAWYQQKPGKAPKLLISGATSLETGVPSRFSGSGSGKDYTFTISSLQPEDIATYYCQQYWSVPWTFGGGTKVEIKR
notes: Humanized, human IgG4/kappa; also called VH6665/VL6666
binds: human IL-17A [1] | human IL-17A [2] | [3]

B2: PP10766 (antibody, human IgG4 S228P, kappa, V domains shown)
VH: EVQLVESGGGVVQPGRSLRLSCAASGFTFSTYGMSWVRQAPGKGLELVAIINHNGGSTFYPDSVKGRFTISRDNSKNTLYLQMNSLRAEDTAVYYCARDPRHDGYFFDYWGQGTLVTVSS
VL: DIQMTQSPSSLSASVGDRVTITCQASEDIYDRLAWYQQKPGKAPKLLISGATSLETGVPSRFSGSGSGTDYTFTISSLQPEDIATYYCQQYWSVPWTFGGGTKVEIKR
notes: Humanized, human IgG4/kappa; also called VH6667/VL6665
binds: human IL-17A [1] | human IL-17A [2] | [3]

B3: PP10765 (antibody, human IgG4 S228P, kappa, V domains shown)
VH: EVQLVESGGGLVQPGGSLRLSCAASGFTFSTYGMSWVRQAPGKGLELVAIINHNGGSTFYPDSVKGRFTVSRDNSKNTLYLQMNSLRAEDTAVYYCARDPRHDGYFFDYWGQGTLVTVSS
VL: DIQMTQSPSSLSASVGDRVTITCRASEDIYDRLAWYQQKPGKAPNLLVSGATSLESGVPSRFSGSGSGKDYTLTISSLQPEDFATYYCQQYWSVPWTFGGGTKVEIKR
notes: Humanized, human IgG4/kappa; also called VH6666/VL6667
binds: human IL-17A [1] | human IL-17A [2] | [3]

B4: PP10763 (antibody, human IgG4 S228P, kappa, V domains shown)
VH: EVQLVESGGGLVQPGGSLRLSCAASGFTFSTYGMSWVRQAPGKGLELVAIINHNGGSTFYPDSVKGRFTVSRDNSKNTLYLQMNSLRAEDTAVYYCARDPRHDGYFFDYWGQGTLVTVSS
VL: DIQMTQSPSSLSASVGDRVTITCQASEDIYDRLAWYQQKPGKAPKLLISGATSLETGVPSRFSGSGSGTDYTFTISSLQPEDIATYYCQQYWSVPWTFGGGTKVEIKR
notes: Humanized, human IgG4/kappa; also called VH6666/VL6665
binds: human IL-17A [1] | human IL-17A [2] | [3]

B5: PP10762 (antibody, human IgG4 S228P, kappa, V domains shown)
VH: EVQLVESGGGLVQPGGSLRLSCAASGFTFSTYGMSWVRQAPGKGLELVSIINHNGGSTFYPDSVKGRFTISRDNSKNTLYLQMNSLRAEDTAVYYCARDPRHDGYFFDYWGQGTLVTVSS
VL: DIQMTQSPSSLSASVGDRVTITCRASEDIYDRLAWYQQKPGKAPNLLVSGATSLESGVPSRFSGSGSGKDYTLTISSLQPEDFATYYCQQYWSVPWTFGGGTKVEIKR
notes: Humanized, human IgG4/kappa; also called VH6665/VL6667
binds: human IL-17A [1] | human IL-17A [2] | [3]

B6: PP10764 (antibody, human IgG4 S228P, kappa, V domains shown)
VH: EVQLVESGGGLVQPGGSLRLSCAASGFTFSTYGMSWVRQAPGKGLELVAIINHNGGSTFYPDSVKGRFTVSRDNSKNTLYLQMNSLRAEDTAVYYCARDPRHDGYFFDYWGQGTLVTVSS
VL: DIQMTQSPSSLSASVGDRVTITCQASEDIYDRLAWYQQKPGKAPKLLISGATSLETGVPSRFSGSGSGKDYTFTISSLQPEDIATYYCQQYWSVPWTFGGGTKVEIKR
notes: Humanized, human IgG4/kappa; also called VH6666/VL6666
binds: human IL-17A [1] | human IL-17A [2] | [3]

B7: PP10768 (antibody, human IgG4 S228P, kappa, V domains shown)
VH: EVQLVESGGGVVQPGRSLRLSCAASGFTFSTYGMSWVRQAPGKGLELVAIINHNGGSTFYPDSVKGRFTISRDNSKNTLYLQMNSLRAEDTAVYYCARDPRHDGYFFDYWGQGTLVTVSS
VL: DIQMTQSPSSLSASVGDRVTITCRASEDIYDRLAWYQQKPGKAPNLLVSGATSLESGVPSRFSGSGSGKDYTLTISSLQPEDFATYYCQQYWSVPWTFGGGTKVEIKR
notes: Humanized, human IgG4/kappa; also called VH6667/VL6667
binds: human IL-17A [1] | human IL-17A [2] | [3]

B8: PP10767 (antibody, human IgG4 S228P, kappa, V domains shown)
VH: EVQLVESGGGVVQPGRSLRLSCAASGFTFSTYGMSWVRQAPGKGLELVAIINHNGGSTFYPDSVKGRFTISRDNSKNTLYLQMNSLRAEDTAVYYCARDPRHDGYFFDYWGQGTLVTVSS
VL: DIQMTQSPSSLSASVGDRVTITCQASEDIYDRLAWYQQKPGKAPKLLISGATSLETGVPSRFSGSGSGKDYTFTISSLQPEDIATYYCQQYWSVPWTFGGGTKVEIKR
notes: Humanized, human IgG4/kappa; also called VH6667/VL6666
binds: human IL-17A [1] | human IL-17A [2] | [3]

B9: PP10760 (antibody, human IgG4 S228P, kappa, V domains shown)
VH: EVQLVESGGGLVQPGGSLRLSCAASGFTFSTYGMSWVRQAPGKGLELVSIINHNGGSTFYPDSVKGRFTISRDNSKNTLYLQMNSLRAEDTAVYYCARDPRHDGYFFDYWGQGTLVTVSS
VL: DIQMTQSPSSLSASVGDRVTITCQASEDIYDRLAWYQQKPGKAPKLLISGATSLETGVPSRFSGSGSGTDYTFTISSLQPEDIATYYCQQYWSVPWTFGGGTKVEIKR
notes: Humanized, human IgG4/kappa; also called VH6665/VL6665
binds: human IL-17A (human) [4] | human IL-17A (human) [5] | [3]

B10: PP10759 (antibody, human IgG4 S228P, kappa, V domains shown)
VH: EVQLVESGGGLVQPGGSLKLSCVASGFTFSTYGMSWVRQTPDKRLELVAIINHNGGSTFYPDSVKGRFTVSRDNAKNTLHLQMSSLKSEDTAMYYCARDPRHDGYFFDYWGQGTTLTVSS
VL: DIQMTQSSPSFSVSLGDRVTITCKASEDIYDRLAWYQQKPGNAPRLLISGATSLETGIPSRFSGSRSGKDYTLDINSLQTEDAATYYCQQYWSVPWTFGGGTKLEIKR
notes: expressed in HEK293; also called chimeric antibody PP10759; chimeric parental antibody
binds: human IL-17A [1] | human IL-17A [2] | [3]
